{"source": "the supplement of paper PMC12259267", "about": "“Disruption of the KLHL37–N-Myc complex restores N-Myc degradation and arrests neuroblastoma growth in mouse models” (The Journal of Clinical Investigation, 2025)", "note": "Counter-ions that a name gives are not always drawn. The list shows a part of the results. Most values come without repeats; read them as rough.", "data": [{"tested_on": "SK-N-BE(2)", "assay": "inhibition of N-Myc immunofluorescence signal per cell relative to control (fraction); higher = stronger N-Myc protein reduction", "details": "1 µM; 9 h", "values": [{"smiles": "CC[C@H](C)n1cc(C)c2c(C(=O)NCc3c(C)cc(C)[nH]c3=O)cc(-c3ccc(N4CCNCC4)nc3)cc21", "inhibition of N-Myc immunofluorescence signal per cell": -0.136}, {"smiles": "Cc1nn2c([nH]c(=O)c3cccnc32)c1C#N", "inhibition of N-Myc immunofluorescence signal per cell": -0.0463}, {"smiles": "c1ccc2c(CCNc3ccc(Nc4ccncc4)cc3)c[nH]c2c1", "note": "[Serdemetan]", "inhibition of N-Myc immunofluorescence signal per cell": -0.0116}, {"smiles": "CCCC(CCC)C(=O)O", "note": "[Valproic acid (sodium salt)]", "inhibition of N-Myc immunofluorescence signal per cell": 0.0659}, {"smiles": "CCOC(=O)c1[nH]c2cc(Cl)ccc2c1C(C(=O)NC(C)(C)C)N(C=O)Cc1ccc(Cl)cc1", "note": "(stereo not given)", "inhibition of N-Myc immunofluorescence signal per cell": 0.189}, {"smiles": "Cc1nc(-c2cccnc2)sc1C(=O)Nc1ccccc1-c1cn2c(CN3CCOCC3)csc2n1", "inhibition of N-Myc immunofluorescence signal per cell": -0.0941}, {"smiles": "C[C@@H](C(=O)N[C@H](C(=O)N1CCC[C@H]1c1nc(C(=O)c2cccc(O)c2)cs1)C1CCCCC1)N(C)C(=O)OC(C)(C)C", "note": "[cIAP1 ligand 1]", "inhibition of N-Myc immunofluorescence signal per cell": 0.367}, {"smiles": "Cc1cnc(-c2ccccc2C(C)C)nc1NCc1ccc(-n2ccnn2)cc1", "inhibition of N-Myc immunofluorescence signal per cell": 0.259}, {"smiles": "O=C1C(=Cc2cccnc2)C(=O)c2ccccc21", "inhibition of N-Myc immunofluorescence signal per cell": 0.129}, {"smiles": "N#CN1CC[C@H](C(=O)Nc2ncc(N3CCOCC3)s2)C1", "inhibition of N-Myc immunofluorescence signal per cell": -0.0411}, {"smiles": "O=C(N[C@@H](Cc1coc2ccccc12)B(O)O)[C@@H]1C[C@H]2CC[C@@H]1O2", "inhibition of N-Myc immunofluorescence signal per cell": 0.171}, {"smiles": "Cc1ncsc1-c1ccc(CNC(=O)[C@@H]2C[C@@H](O)CN2C(=O)[C@@H](NC(=O)C2(C#N)CC2)C(C)(C)C)cc1", "inhibition of N-Myc immunofluorescence signal per cell": -0.214}, {"smiles": "NC(=O)N1CCC(CC(=O)N2CCC([C@H]3c4ncc(Br)cc4CCc4cc(Cl)cc(Br)c43)CC2)CC1", "note": "[Lonafarnib]", "inhibition of N-Myc immunofluorescence signal per cell": 0.0697}, {"smiles": "COc1cccc2c1c(O)c(C(=O)N(C)c1ccc(C(F)(F)F)cc1)c(=O)n2C", "note": "[Tasquinimod]", "inhibition of N-Myc immunofluorescence signal per cell": 0.2}, {"smiles": "O=[N+]([O-])c1ccc(S(=O)(=O)N2CCN(c3ccnc4cc(Cl)ccc34)CC2)c([N+](=O)[O-])c1", "inhibition of N-Myc immunofluorescence signal per cell": 0.13}, {"smiles": "O=C(Nc1ccc(O)c(C(=O)O)c1)c1cccc(NC(=O)c2ccco2)c1", "inhibition of N-Myc immunofluorescence signal per cell": 0.0327}, {"smiles": "Nc1ccccc1NC(=O)c1cnccn1", "inhibition of N-Myc immunofluorescence signal per cell": 0.0625}, {"smiles": "OCc1c[nH]c2ccccc12", "note": "[Indole-3-carbinol]", "inhibition of N-Myc immunofluorescence signal per cell": 0.0888}, {"smiles": "N#Cc1c2ccc(N)cc2nc2cc(N)ccc12", "inhibition of N-Myc immunofluorescence signal per cell": 0.152}, {"smiles": "CCN(CC)Cc1cc(Nc2ccnc3cc(Cl)ccc23)ccc1O", "note": "[Amodiaquine (dihydrochloride dihydrate)]", "inhibition of N-Myc immunofluorescence signal per cell": -0.0548}, {"smiles": "O=C1CCC(N2C(=O)c3ccc(F)cc3C2=O)C(=O)N1", "note": "(stereo not given) [Thalidomide 5-fluoride]", "inhibition of N-Myc immunofluorescence signal per cell": 0.166}, {"smiles": "c1ccc(CNc2nc(NCc3ccccc3)c3ccccc3n2)cc1", "inhibition of N-Myc immunofluorescence signal per cell": -0.197}, {"smiles": "Nc1ccccc1NC(=O)c1ccc(CNc2nccc(-c3cccnc3)n2)cc1", "note": "[Mocetinostat]", "inhibition of N-Myc immunofluorescence signal per cell": 0.0174}, {"smiles": "CS(=O)(=O)c1ccc(NC(=O)c2cc(C#N)c(Sc3c(Cl)cncc3Cl)s2)cc1", "note": "[USP7/USP47 inhibitor]", "inhibition of N-Myc immunofluorescence signal per cell": 0.123}, {"smiles": "CC(C)(C)OC(=O)Nc1ccc(-c2cc(C(=O)NCCCCCCC(=O)NO)no2)cc1", "inhibition of N-Myc immunofluorescence signal per cell": -0.041}, {"smiles": "COC(=O)/C=C/C(=O)OC", "note": "[Dimethyl Fumarate]", "inhibition of N-Myc immunofluorescence signal per cell": 0.046}, {"smiles": "COCCCc1sc(-c2ccccc2)nc1C(=O)Nc1ccccc1-c1nc2cc(CN3CCCC3)cnc2s1", "note": "[Sirtuin modulator 1]", "inhibition of N-Myc immunofluorescence signal per cell": -0.0758}, {"smiles": "COc1cccc2c(NCc3ccccc3)nc(-n3c(N)nc4ccccc43)nc12", "inhibition of N-Myc immunofluorescence signal per cell": 0.153}, {"smiles": "Cc1cc(C)c(CN2CCc3c(Cl)cc(-c4c(C)noc4C)c(Cl)c3C2=O)c(=O)[nH]1", "inhibition of N-Myc immunofluorescence signal per cell": -0.0154}, {"smiles": "O=C(c1cc(Cc2n[nH]c(=O)c3ccccc23)ccc1F)N1CCN(C(=O)C2CC2)CC1", "note": "[Olaparib]", "inhibition of N-Myc immunofluorescence signal per cell": 0.0224}, {"smiles": "CN(C)CCCCC(=O)Nc1ccc(NC(=S)NC(=O)c2ccc(C(C)(C)C)cc2)cc1", "note": "[Tenovin-6]", "inhibition of N-Myc immunofluorescence signal per cell": -0.224}, {"smiles": "CC(NC(=O)c1ccccc1/N=C/c1c(O)ccc2ccccc12)c1ccccc1", "note": "(stereo not given) [Sirtinol]", "inhibition of N-Myc immunofluorescence signal per cell": 0.027}, {"smiles": "Cn1cncc1[C@](O)(COc1ccc(C#N)cc1-c1ccc(OC(F)(F)F)cc1)c1ccc(C#N)cc1", "inhibition of N-Myc immunofluorescence signal per cell": 0.125}, {"smiles": "Cc1ccc2nc(NC(=O)CSc3nc4c(c(=O)n3-c3ccccc3)SCC4)sc2c1", "inhibition of N-Myc immunofluorescence signal per cell": -0.00853}, {"smiles": "Cc1cc(OCc2nnc(SC3CCCC3)n2-c2cccnc2)ccc1-c1ccc(S(C)(=O)=O)cc1", "inhibition of N-Myc immunofluorescence signal per cell": 0.0725}]}]}
